Reference: the supplement of paper PMC8612539
Further values from the same series stand in other lists.

Tested on: Escherichia coli
Assay: minimum inhibitory concentration (MIC)
Description: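 Broth microdilution MIC (Sensititre BOPO7F bovine plate, CLSI methods) of 19 antimicrobials against field isolates of P. multocida, M. haemolytica, H. somni (deep nasopharyngeal swabs) and E. coli, Enterococcus spp. (rectal swabs) from weaned dairy heifers. Incubation 16-24 h at 35 C. MIC is the lowest concentration preventing visible growth. Values with <= or > lie at the tested range limits. Trimethoprim-sulfamethoxazole is given as the trimethoprim component of a 1:19 mixture.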

COc1cc(NS(=O)(=O)c2ccc(N)cc2)nc(OC)n1 [sulfadimethoxine]
Details | minimum inhibitory concentration [µg/mL]
isolate (source animal id): 1 | ≤ 256
isolate (source animal id): 2 | > 256
isolate (source animal id): 3 | ≤ 256
isolate (source animal id): 4 | ≤ 256
isolate (source animal id): 5 | > 256
isolate (source animal id): 6 | > 256
isolate (source animal id): 7 | > 256
isolate (source animal id): 17 | > 256
isolate (source animal id): 18 | > 256
isolate (source animal id): 19 | ≤ 256
isolate (source animal id): 20 | > 256
isolate (source animal id): 21 | ≤ 256
isolate (source animal id): 22 | ≤ 256
isolate (source animal id): 23 | ≤ 256
isolate (source animal id): 24 | ≤ 256
isolate (source animal id): 25 | > 256
isolate (source animal id): 26 | ≤ 256
isolate (source animal id): 27 | > 256
isolate (source animal id): 28 | ≤ 256
isolate (source animal id): 29 | > 256
isolate (source animal id): 30 | > 256
isolate (source animal id): 31 | > 256
isolate (source animal id): 32 | > 256
isolate (source animal id): 33 | > 256
isolate (source animal id): 34 | > 256
isolate (source animal id): 35 | > 256
isolate (source animal id): 36 | > 256
isolate (source animal id): 37 | > 256
isolate (source animal id): 38 | > 256
isolate (source animal id): 39 | > 256
isolate (source animal id): 40 | > 256
isolate (source animal id): 41 | > 256
isolate (source animal id): 42 | > 256
isolate (source animal id): 43 | > 256
isolate (source animal id): 44 | ≤ 256
isolate (source animal id): 45 | > 256
isolate (source animal id): 46 | > 256
isolate (source animal id): 47 | > 256
isolate (source animal id): 48 | > 256
isolate (source animal id): 49 | > 256
isolate (source animal id): 50 | > 256
isolate (source animal id): 51 | > 256
isolate (source animal id): 52 | ≤ 256
isolate (source animal id): 53 | > 256
isolate (source animal id): 54 | ≤ 256
isolate (source animal id): 55 | > 256
isolate (source animal id): 56 | ≤ 256
isolate (source animal id): 57 | > 256
isolate (source animal id): 58 | > 256
isolate (source animal id): 59 | > 256
isolate (source animal id): 60 | > 256
isolate (source animal id): 61 | > 256
isolate (source animal id): 62 | > 256
isolate (source animal id): 63 | > 256
isolate (source animal id): 64 | > 256
isolate (source animal id): 65 | > 256
isolate (source animal id): 66 | > 256
isolate (source animal id): 67 | > 256
isolate (source animal id): 68 | > 256
isolate (source animal id): 69 | > 256
isolate (source animal id): 70 | > 256
isolate (source animal id): 71 | > 256
isolate (source animal id): 72 | > 256
isolate (source animal id): 73 | ≤ 256
isolate (source animal id): 74 | > 256
isolate (source animal id): 75 | > 256
isolate (source animal id): 76 | > 256
isolate (source animal id): 77 | > 256
isolate (source animal id): 78 | > 256
isolate (source animal id): 79 | > 256
isolate (source animal id): 80 | ≤ 256
isolate (source animal id): 81 | > 256
isolate (source animal id): 82 | > 256
isolate (source animal id): 83 | > 256
isolate (source animal id): 84 | > 256
isolate (source animal id): 85 | ≤ 256
isolate (source animal id): 86 | > 256
isolate (source animal id): 87 | > 256
isolate (source animal id): 88 | > 256
isolate (source animal id): 89 | ≤ 256
isolate (source animal id): 90 | > 256
isolate (source animal id): 91 | > 256
isolate (source animal id): 92 | > 256
isolate (source animal id): 93 | > 256
isolate (source animal id): 94 | > 256
isolate (source animal id): 95 | > 256
isolate (source animal id): 96 | > 256
isolate (source animal id): 97 | > 256
isolate (source animal id): 189 | > 256
isolate (source animal id): 190 | > 256
isolate (source animal id): 191 | ≤ 256
isolate (source animal id): 192 | > 256
isolate (source animal id): 193 | > 256
isolate (source animal id): 194 | ≤ 256
isolate (source animal id): 195 | ≤ 256
isolate (source animal id): 196 | > 256
isolate (source animal id): 197 | > 256
isolate (source animal id): 198 | > 256
isolate (source animal id): 199 | > 256
isolate (source animal id): 200 | ≤ 256
isolate (source animal id): 201 | > 256
isolate (source animal id): 202 | ≤ 256
isolate (source animal id): 203 | > 256
isolate (source animal id): 204 | ≤ 256
isolate (source animal id): 205 | > 256
isolate (source animal id): 206 | ≤ 256
isolate (source animal id): 207 | > 256
isolate (source animal id): 208 | > 256
isolate (source animal id): 209 | ≤ 256
isolate (source animal id): 210 | > 256
isolate (source animal id): 211 | > 256
isolate (source animal id): 212 | > 256
isolate (source animal id): 213 | > 256
isolate (source animal id): 214 | > 256
isolate (source animal id): 215 | ≤ 256
isolate (source animal id): 216 | > 256
isolate (source animal id): 217 | ≤ 256
isolate (source animal id): 218 | ≤ 256
isolate (source animal id): 219 | ≤ 256
isolate (source animal id): 220 | > 256
isolate (source animal id): 221 | ≤ 256
isolate (source animal id): 222 | ≤ 256
isolate (source animal id): 223 | > 256
isolate (source animal id): 224 | > 256
isolate (source animal id): 225 | > 256
isolate (source animal id): 226 | > 256
isolate (source animal id): 227 | > 256
isolate (source animal id): 228 | > 256
isolate (source animal id): 229 | > 256
isolate (source animal id): 230 | > 256
isolate (source animal id): 231 | ≤ 256
isolate (source animal id): 232 | > 256
isolate (source animal id): 233 | > 256
isolate (source animal id): 234 | > 256
isolate (source animal id): 235 | > 256
isolate (source animal id): 236 | > 256
isolate (source animal id): 237 | > 256
isolate (source animal id): 238 | > 256
isolate (source animal id): 239 | ≤ 256
isolate (source animal id): 240 | > 256
isolate (source animal id): 241 | > 256
isolate (source animal id): 242 | ≤ 256
isolate (source animal id): 243 | > 256
isolate (source animal id): 244 | ≤ 256
isolate (source animal id): 245 | > 256
isolate (source animal id): 246 | > 256
isolate (source animal id): 247 | > 256
isolate (source animal id): 248 | > 256
isolate (source animal id): 249 | ≤ 256
isolate (source animal id): 250 | > 256
isolate (source animal id): 251 | > 256
isolate (source animal id): 252 | > 256
isolate (source animal id): 253 | > 256
isolate (source animal id): 254 | > 256
isolate (source animal id): 255 | > 256
isolate (source animal id): 256 | > 256
isolate (source animal id): 257 | > 256
isolate (source animal id): 258 | ≤ 256
isolate (source animal id): 259 | > 256
isolate (source animal id): 260 | > 256
isolate (source animal id): 261 | > 256
isolate (source animal id): 262 | > 256
isolate (source animal id): 263 | > 256
isolate (source animal id): 264 | ≤ 256
isolate (source animal id): 265 | > 256
isolate (source animal id): 266 | ≤ 256
isolate (source animal id): 267 | > 256
isolate (source animal id): 268 | ≤ 256
isolate (source animal id): 269 | > 256
isolate (source animal id): 270 | > 256
isolate (source animal id): 271 | > 256
isolate (source animal id): 272 | ≤ 256
isolate (source animal id): 273 | > 256
isolate (source animal id): 274 | > 256
isolate (source animal id): 275 | > 256
isolate (source animal id): 276 | > 256
isolate (source animal id): 277 | > 256
isolate (source animal id): 278 | ≤ 256
isolate (source animal id): 279 | > 256
isolate (source animal id): 280 | > 256
isolate (source animal id): 281 | > 256
isolate (source animal id): 282 | ≤ 256
isolate (source animal id): 283 | ≤ 256
isolate (source animal id): 284 | > 256
isolate (source animal id): 285 | ≤ 256
isolate (source animal id): 286 | > 256
isolate (source animal id): 287 | > 256
isolate (source animal id): 288 | ≤ 256
isolate (source animal id): 289 | ≤ 256
isolate (source animal id): 290 | > 256
isolate (source animal id): 291 | > 256
isolate (source animal id): 292 | > 256
isolate (source animal id): 293 | > 256
isolate (source animal id): 294 | > 256
isolate (source animal id): 295 | > 256
isolate (source animal id): 296 | > 256
isolate (source animal id): 297 | ≤ 256
isolate (source animal id): 298 | > 256
isolate (source animal id): 299 | > 256
isolate (source animal id): 300 | > 256
isolate (source animal id): 301 | > 256
isolate (source animal id): 302 | > 256
isolate (source animal id): 303 | ≤ 256
isolate (source animal id): 304 | > 256
isolate (source animal id): 305 | ≤ 256
isolate (source animal id): 306 | ≤ 256
isolate (source animal id): 307 | ≤ 256
isolate (source animal id): 308 | > 256
isolate (source animal id): 309 | > 256
isolate (source animal id): 310 | ≤ 256
isolate (source animal id): 311 | > 256
isolate (source animal id): 312 | > 256
isolate (source animal id): 313 | > 256
isolate (source animal id): 314 | > 256
isolate (source animal id): 315 | ≤ 256
isolate (source animal id): 316 | > 256
isolate (source animal id): 317 | > 256
isolate (source animal id): 318 | > 256
isolate (source animal id): 319 | > 256
isolate (source animal id): 320 | > 256
isolate (source animal id): 321 | > 256
isolate (source animal id): 322 | > 256
isolate (source animal id): 323 | > 256
isolate (source animal id): 324 | > 256
isolate (source animal id): 325 | > 256
isolate (source animal id): 326 | > 256
isolate (source animal id): 327 | > 256
isolate (source animal id): 328 | ≤ 256
isolate (source animal id): 329 | ≤ 256
isolate (source animal id): 330 | > 256
isolate (source animal id): 331 | > 256
isolate (source animal id): 332 | > 256
isolate (source animal id): 333 | > 256
isolate (source animal id): 334 | > 256
isolate (source animal id): 335 | > 256
isolate (source animal id): 336 | > 256
isolate (source animal id): 337 | > 256
isolate (source animal id): 338 | > 256
isolate (source animal id): 339 | > 256
isolate (source animal id): 340 | > 256
isolate (source animal id): 341 | ≤ 256
